This is an account of results in US20130344085A1.

Sequences of proteins named here, by UniProt entry; tags and fusion partners are left off. A change or cut given only in a name is not applied to a line headed by its entry.
UniProt Q8NBP7: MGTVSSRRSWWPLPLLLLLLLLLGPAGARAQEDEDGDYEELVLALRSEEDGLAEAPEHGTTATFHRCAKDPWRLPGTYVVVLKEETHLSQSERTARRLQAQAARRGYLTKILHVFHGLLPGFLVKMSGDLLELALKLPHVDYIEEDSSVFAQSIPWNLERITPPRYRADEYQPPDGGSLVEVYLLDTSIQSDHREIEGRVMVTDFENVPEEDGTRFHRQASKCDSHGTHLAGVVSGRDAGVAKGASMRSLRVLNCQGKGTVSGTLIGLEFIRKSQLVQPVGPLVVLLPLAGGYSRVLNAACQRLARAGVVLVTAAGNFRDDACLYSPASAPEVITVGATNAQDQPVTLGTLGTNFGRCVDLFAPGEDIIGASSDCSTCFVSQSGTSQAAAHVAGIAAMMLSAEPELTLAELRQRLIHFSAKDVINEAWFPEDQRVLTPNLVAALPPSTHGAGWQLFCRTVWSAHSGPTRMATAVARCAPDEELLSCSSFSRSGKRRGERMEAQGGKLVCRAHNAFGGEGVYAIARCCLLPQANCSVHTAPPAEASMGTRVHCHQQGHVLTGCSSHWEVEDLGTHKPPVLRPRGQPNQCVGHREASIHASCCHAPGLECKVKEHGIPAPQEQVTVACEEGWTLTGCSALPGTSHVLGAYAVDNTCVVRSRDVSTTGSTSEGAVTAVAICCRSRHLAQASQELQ

Where a chain is given by its changes, count along the chain named. No constants are given. Whether binding was seen depends on the method and setting. Some entries that bind do so weakly or less than the wild type.

For the assay, the target named is biotinylated human PCSK9 (human) (UniProt Q8NBP7). Put plainly: phage competition ELISA (phage IC50) against PCSK9, phage-displayed Fab, compared with parental clone 508.20b. On the technique in general: An ELISA detects its analyte on a solid surface through an enzyme-linked reagent.

B1: anti-PCSK9 antibody 508.20.04b (antibody, human IgG1, V domains shown)
VH: EVQLVESGGGLVQPGGSLRLSCAASGFTFTGYAIHWVRQAPGKGLEWVARISPANGNTNYADSVKGRFTISADTSKNTAYLQMNSLRAEDTAVYYCARWIGSRELYIMDYWGQGTLVTVSS
VL: DIQMTQSPSSLSASVGDRVTITCRASQDVSTAVAWYQQKPGKAPKLLIYSASFLYSGVPSRFSGSGSGTDFTLTISSLQPEDFATYYCQQSYPAPATFGQGTKVEIK
In the case of B1, the binding result was “binds”.

B2: anti-PCSK9 antibody 508.20.06 (antibody, human IgG1, V domains shown)
VH: B1 VH
VL: B1 VL with A94S
In the case of B2, the binding entry is “binds”.

B3: anti-PCSK9 antibody 508.20.84 (antibody, human IgG1, V domains shown)
VH: B1 VH
VL: B1 VL with A96S
For the molecule B3, the binding result was “binds”.

B4: anti-PCSK9 antibody 508.20.28b (antibody, human IgG1, V domains shown)
VH: B1 VH with G31R, Y32H, A33T, H35N
VL: B1 VL with P93R, A94I, P95Q, A96P
Regarding B4, the binding entry was “binds”.

B5: YW508.20.33b reformatted into human IgG1 having a heavy chain with SEQ ID NO: 35 and a light chain with SEQ ID NO: 36 (antibody, V domains shown)
VH: B1 VH with T30S, G31S, Y32T
VL: DIQMTQSPSSLSASVGDRVTITCRASQDVSTAVAWYQQKPGKAPKLLIYSASFLYSGVPSRFSGSGSGTDFTLTISSLQPEDFATYYCQQAYPALHTFGQGTKVEIKR
With B5, the binding result is “binds”.
